Measurements: patent publication US20250388687A1
Substitutions are numbered along the chain they refer to. No constants are given. Whether binding was seen depends on the method and setting. Some binding calls cover weakened binding; strength is not graded here. Values belong to the binder of their own block, whether it stands above or below them.

Amino acid sequences for entries named in this document (tags omitted). Residues count along the entry.
UniProt P32927, residues 17-443: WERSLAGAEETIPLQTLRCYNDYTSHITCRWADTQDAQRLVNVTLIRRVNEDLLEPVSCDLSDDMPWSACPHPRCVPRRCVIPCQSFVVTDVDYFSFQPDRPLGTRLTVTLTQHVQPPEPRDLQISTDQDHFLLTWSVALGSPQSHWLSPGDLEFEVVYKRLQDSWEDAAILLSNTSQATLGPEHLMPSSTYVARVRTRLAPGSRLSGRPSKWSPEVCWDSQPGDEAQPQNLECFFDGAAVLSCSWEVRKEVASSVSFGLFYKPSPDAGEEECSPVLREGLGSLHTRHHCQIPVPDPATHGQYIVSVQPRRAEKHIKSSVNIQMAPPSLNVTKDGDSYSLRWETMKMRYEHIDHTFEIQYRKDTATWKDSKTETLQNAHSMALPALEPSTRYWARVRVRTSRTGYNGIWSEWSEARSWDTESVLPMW

Molecular target: hCD131-Fc (IME021, in house) (human) (UniProt P32927)
Assay: B-cell sorting with labelled hEPOR-Fc and hCD131-Fc, double-positive population

B4: clonotype 307 (EPOR/CD131 binders, Table 8) (antibody, V domains shown)
VH: QITLKESGPTLVKPTQTLTLTCTFSGFSISTSGVGVGWIRQPPGKALEWLAFIFWNDDKRYSPSLKSRLTITKDTSKNQVVLTMTNMDPVDTATYYCTHTEYGSSWSVDYWGQGTLVTVSS
VL: QAVLTQPASLSASPGASASLTCTLRSGINVGTSRIYWYQQKPGSPPQYLLRYKSDSDKHQDSGVPSRFSGSKDASANAGILLISGLQSEDEADYYCMIWHSSAVVFGGGTKLTVL
- binding: binds

B6: clonotype 308 (EPOR/CD131 binders, Table 8) (antibody, V domains shown)
VH: EVQLVESGGGVVRPGGSLRLSCAASGFTFDDYGMSWVRQAPGKGLEWVSGINWNGGSTGYADSVKGRFTISRDNAKNSLYLQMNSLRAEDTALYYCARHFDWLLSNAFDIWGQGTMVTVSS
VL: QAVLTQPASLSASPGASASLTCTLRSGINVGTYRIYWYQQKPGSPPQYLLRYKSDSDKQQGSGVPSRFSGSKDASANAGILLISGLQSEDEADYYCMIWHSSASVVFGGGTKLTVL
- binding: binds

B7: clonotype 304 (EPOR/CD131 binders, Table 8) (antibody, V domains shown)
VH: EVQLVESGGGLVKPGGSLRLSCAASGFTFSRYSMNWVRQAPGKGLEWVSSIISSTSYIYYADSVKGRFTISRDNAKNSLYLQMNSLRAEDTAVYYCARETPVTLFDAFDIWGQGTMVTVSS
VL: QSVLTQPPSVSGAPGQRVTISCTGSSSNIGARYDVHWYQLLPGSAPKLLIYDNSDRPSGVPDRFSGSRSGTSASLAITGLQAEDEADYFCQSYDSSLSGSVFGGGTKLTVL
- binding: binds

B9: clonotype 305 (EPOR/CD131 binders, Table 8) (antibody, V domains shown)
VH: EVHLVESGGGLVQPGRSLRLSCAASGFTFDEYAMHWVRQVPGKGLEWVSGISWNSGSIGYADSVKGRFTISRDNAKNSLYLQMNSLRAEDTALYYCAKDIFTGRAGYFDYWGQGTLVTVSS
VL: B7 VL with R32G, L40Q, S44T, D52G, D55N, R68K, F89Y, S100W
- binding: binds

B11: clonotype 302 (EPOR/CD131 binders, Table 8) (antibody, V domains shown)
VH: QVQLVQSGAEVKKPGASVKVSCKASGYTFTSYGITWVRQAPGQGLEWMGWISAYNGNTHYAQKLQGRVTMTTDTSTSTAYMDLRSLRSDDTAVYYCARTIFGVVNNWFDPWGQGTLVTVSS
VL: QSVLSQPPSVSEAPRQRVTISCSGSSSNIGYNAVNWYQQLPGKAPKLLISHDDLLPSGVSDRFSGSKSGTSASLAISGLQSDDEADYYCAAWDARLNGWVFGGGTKLTVL
- binding: binds

B12: clonotype 290 (EPOR/CD131 binders, Table 8) (antibody, V domains shown)
VH: QVQLVQSGAEVKKPGASVKVSCKASGYTFTSYDINWVRQATGQGLEWMGWMNPNSGNTGYAQKFQGRVTMTRNTSISTAYMELSSLRSEDTAVYYCARGYYDFWSGPFDYWGQGTLVTVSS
VL: SYELTQPPSVSVSPGQTARITCSGDALPKKYAYWYQQKSGQAPVLVIYEDSKRPSGIPERFSGSSSGTMATLTISGAQVEDEADYYCYSTDSSGNRVFGGGTKLTVL
- binding: binds

B14: clonotype 292 (EPOR/CD131 binders, Table 8) (antibody, V domains shown)
VH: QVQLQESGPGLVKPSETLSLTCTVSGGSISDYYWNWIRQPPGKGLEWIGYISSRGRTNYNPSLKSRVTLSVDSSKNQFSLKLTSVTAADTAVFYCARGRHFDWLLSYFDYWGQGTLVTVSS
VL: SSELTQDPAVSVALGQTVRITCQGDSLRSYYASWYQQKPGQAPVLVIYGKNNRPSGIPDRFSGSSSGNTASLTITGAQAEDEADYYCNSRDSSGNHYVFGTGTKVTVL
- binding: binds

B15: clonotype 300 (EPOR/CD131 binders, Table 8) (antibody, V domains shown)
VH: EVQLVESGGGLVQPGGSLRLSCAASGFTFSSYWMHWVRQAPGKGLVWVSRVNSDGSNTTYADSVKGRFTISRDNAKNTLYLQMNSLRAEDTAVYYCARNRDYHGSGSFDYWGQGTLVTVSS
VL: B14 VL with K50Q, Y97W, T101G, V105L
- binding: binds

B17: clonotype 301 (EPOR/CD131 binders, Table 8) (antibody, V domains shown)
VH: QVQLQQSGPGLVKPSQTLSLTCAISGDNVSSNSAAWNWIRQSPSRGLEWLGRTYYRSKWYNDYAVSVKSRITINPDTSKNQFSLHLNSVTPEDTALYYCARDWNFAFDIWGQGTMVTVSS
VL: B14 VL with Y97L, T101G, V105L
- binding: binds

B18: clonotype 298 (EPOR/CD131 binders, Table 8) (antibody, V domains shown)
VH: QVQLVQSGSEVKKPGASVKVSCKASGYTFTGYYMYWVRQAPGQGLEWMGWINPNSGGTNYAQKFQDRVTMTRDTSISTAYMELSRLRSDDTAIYYCARDLDYYGSGNYDYWGQGTLVTVSS
VL: B14 VL with G94D, Y97R, T101G, V105L
- binding: binds

B19: clonotype 293 (EPOR/CD131 binders, Table 8) (antibody, V domains shown)
VH: EVQLVESGGGLVKPGGSLRLSCAASGFTFSSDNMNWVRQAPGKGLEWVSSIGSSSSYIYYADSVKGRFTISRDNAKNSLYLQMNSLRAEDTAVYYCARDRAIVGATWFDPWGQGTLVIVSS
VL: B14 VL with S29N, V44I, G94Y, Y97W, T101G, V105L
- binding: binds

B20: clonotype 296 (EPOR/CD131 binders, Table 8) (antibody, V domains shown)
VH: QVQLVQSGAEVKKPGASVKVSCKASGYTFTSYGISWVRQAPGQGLEWMGWISAYNGNTNYAQKLQGRVTMTTDTSTSTAYMELRSLRSDDTAVYYCARDGAARPPRYMDVWGKGTTVTVSS
VL: B14 VL with Y97L, T101G, V105L
- binding: binds

B22: clonotype 294 (EPOR/CD131 binders, Table 8) (antibody, V domains shown)
VH: EVQLVESGGGLVKPGGSLRLSCAASGFTFSSYSMNWVRQAPGKGLEWVSSISSSSSYIYYADSVKGRFTISRDNAKNSLYLQMNSLRAEDTAVYYCARDRYNWNYRYFDLWGRGTLVTVSS
VL: B14 VL with Y97L, T101G, V105L
- binding: binds

Now from value to binder:

- binding: binds
B1: clonotype 316 (EPOR/CD131 binders, Table 8) (antibody, V domains shown)
VH: EVQLVESGGGLVQPGGSLRLSCAASGFTFSSYWMSWVRQAPGKGLEWVANIKQDGSEKYYVDSVKGRFTISRDNAKNSLYLQMNSLRAEDTAVYYCARDDTIFGVVTDAFDIWGQGTMVTVSS
VL: SSELTQDPAVSVALGQTVRITCQGDSLRSYYASWYQQKPGQAPVLVIYGKNNRPSGIPDRFSGSSSGNTASLTITGAQAEDEADYYCNSRDSSGNLFGGGTKLTVL

- binding: binds
B2: clonotype 345 (EPOR/CD131 binders, Table 8) (antibody, V domains shown)
VH: QVQLQQSGPGLVKPSQTLSLTCAISGDSVSSNSAAWNWIRQSPSRGLEWLGRTYYRSKWYNDYAVSVKSRITINPDTSKNQFSLQLNSVTPEDTAVYYCAREAYWNYGGFDYWGQGTLVTVSS
VL: QSALTQPPSASGSPGQSVTISCTGTSSDVGGYNYVSWYQQHPGKAPKLMIYEVSKRPSGVPDRFSGSKSGNTASLTVSGLQAEDEADYYCSSYAGSNNFGVFGGGTKLTVL

- binding: binds
B3: clonotype 309 (EPOR/CD131 binders, Table 8) (antibody, V domains shown)
VH: QVQLVQSGAEVKKPGASVKVSCKASGYTFTSYDINWVRQATGQGLEWMGWMNPNSGNTGYAQKFQGRVTMTRNTSISTAYMELSSLRSEDTAVYYCVRRITVVRGVISLDYWGQGTLVTVSS
VL: SYELTQPPSVSVSPGQTAIITCSGAKLGDKYACWYQKKPGQSPVMVIYQDRKRPSGIPERFSGSNSGNTATLTISGTQAMDEADYYCQAWDSSTAVFGGGTKLTVL

- binding: binds
B5: clonotype 327 (EPOR/CD131 binders, Table 8) (antibody, V domains shown)
VH: QVQLVQSGAEVKKPGASVKVSCKASGYTFTSYDINWVRQATGQGLEWMGWMNPNSGNTGYAQKFQGRVTMTRNTSISTAYMELSSLRSEDTAVYYCARGGITIFGVVTPFDYWGQGTLVTVSS
VL: B4 VL with S33Y, H59Q, D61G, V104W

- binding: binds
B8: clonotype 326 (EPOR/CD131 binders, Table 8) (antibody, V domains shown)
VH: EVQLVESGGGLVQPGGSLRLSCAASGFTFSSYSMNWVRQAPGKGLEWVSYISSSSSTIYYADSVKGRFTISRDNAKNSLYLQMNSLRDEDTAVYYCARTYYYGSGSYYTLDYWGQGTLVTVSS
VL: B7 VL with R32G, L40Q, S44T, D52G, D55N, R68K, F89Y, S100V

- binding: binds
B10: clonotype 341 (EPOR/CD131 binders, Table 8) (antibody, V domains shown)
VH: QVHLVESGGGVVQPGRSLRLSCAASGFTFSSYGMHWVRQAPGKGLEWVAIIWYDGSNEYYADSVKGRFTISRDNSKNTLYLQMNTLRAEDTAVYYCAGAYYYDSSGYLNYMDVWGKGTTVTVSS
VL: SYVLIQPPSVSVAPGKTARITCGGNNIGGKSVHWYQLKPGQAPVLVICYNRDRPSGIPERFSGSNSGNTATLTISRVEAGDEADYYCQVWDSSSDHPVFGGGTKLTVL

- binding: binds
B13: clonotype 342 (EPOR/CD131 binders, Table 8) (antibody, V domains shown)
VH: EVQLVESGGGLVKPGGSLRLSCAASGFTFRNAWMSWVRQAPGKGLEWVGRIKTKTDGGATQYAAPVKGRFTISRDDSKNTLYLQMNSLKTEDTAVYYCTTDHIEYSSLYYFDYWGQGTLVTVSS
VL: QSVLTQSPSASGTPGQRVTISCSGSNSNIGFNTVNWYQQLPGTAPKLLIDSNNQRPSGVPDRFSGSTSGTSASLAISGLQSEDEADYYCSSYAGSNNFVFGTGTKVTVL

- binding: binds
B16: clonotype 333 (EPOR/CD131 binders, Table 8) (antibody, V domains shown)
VH: EVQLVESGGGLVQPGGSLRLSCAASGFTFSSYWMSWVRQAPGKGLEWVANIKQDGSEKYYVDSVKGRFTISRDNAKNSLYLQMNSLRAEDTAVYYCAREGVLWFGEFYYYMDVWGKGTTVTVSS
VL: B14 VL with S29R, Y97L, T101G, V105L

- binding: binds
B21: clonotype 319 (EPOR/CD131 binders, Table 8) (antibody, V domains shown)
VH: EVQLVESGGGLVKPGGSLRLSCAASGFTFSTYSMNWVRQAPGKGLEWVSSISSSSTYIYYADSVKGRFTISRDNAKNSLYLQMNSLRADDTAVYYCARDPPLSGSYAGEFDYWGQGTLVTVSS
VL: B14 VL with Y97W, T101G, V105L

- binding: binds
B23: clonotype 343 (EPOR/CD131 binders, Table 8) (antibody, V domains shown)
VH: QVQLVQSGAEVKKPGASVKVSCKASGYTFTSYGISWVRQAPGQGLEWMGWISAYNGNTNYAQKLQGRVTMTTDTSTSTAYMELRSLRSDDTAVYYCARQLAYCGGDCYLYFDYWGQGTLVTVSS
VL: QSALTQPPSASGSPGQSVTISCTGTSSDVGGYNYVSWYQQHPGKAPKLMIYEVSKRPSGVPDRFSGSKSGNTASLTVSGLQAEDEADYYCSSYAGSNNLVFGGGTKLTVL
